Laboratory results as given in patent US4320051A, “Analgesic tripeptide amides” (American Home Products Corporation, priority 1980, dated 1982).
Not every detail of the peptide structures is certain; ends, links or a residue may be inferred.

Assays:
[1] = tested on: phenylbenzoquinone-induced writhing; test: phenylbenzoquinone-induced writhing test; type: in vivo; conditions: subcutaneous, mice, Time 30 minutes
Procedure: Exp. Biol. Med., 95, 729-731 (1957), by establishing three groups of ten mice (Carworth farms) per group (18-27 g. body weight). The animals receive the compound being tested (Examples 9 and 15) subsubcutaneously. Five or 20 minutes later each animal received 0.25 milliliters of the writhing agonist (i.e. 0.02% solution of PBQ). The animals receiving the writhing agonist five minutes after the test compound are observed for a period of ten minutes beginning five minutes after the injection. The animals receiving the writhing agonist 20 minutes after the test compound are observed for ten minutes beginning five minutes after the injection. A compound is an analgesic if it inhibits writhing induced by phenyl benzoquinone.

[2] = tested on: opiate receptor (3H-naloxone binding); test: 3H-naloxone displacement (procedure of Chang et al.); conditions: morphine=1
From the text: Enkephalin, a natural opiate receptor agonist in the brain, has been identified [see Hughes et al., Nature, 258,577 (1975)] as a mixture of two pentapeptides: H-Tyr-Gly-Gly-Phe-Met-OH (methionine-enkephalin) and H-Tyr-Gly-Gly-Phe-Leu-OH (leucine-enkephalin). […] It has been reported that methionine-enkephalin and leucine-enkephalin, when administered by injection in the brain ventricle in rats, induce a profound analgesia that is fully reversible by naloxone. [See Beluzzi et al., Nature, 260, 625 (1976)].

Compound: CN[C@@H](Cc1ccc(O)cc1)C(=O)N[C@H](C)C(=O)NCC(=O)N(C)[C@@H](Cc1ccccc1)CN1CCN(C)CC1 [Example 15, N-methyl-L-tyrosyl-D-alanyl-N,N-methyl,[1-[(4-methyl-1-piperazinyl)methyl]-2-phenylethyl]glycinamide]
- ED50 mg/kg. (confidence limits) [1]: 0.62 (0.37-1.03) mg/kg
- relative displacement potency [2]: 2.1
